Measurements published in PMC5738409.
Results are given in words; binding and its absence hold for the method and conditions named. Binding calls can cover weak binding; strength is not graded here.

Target: T1, p53 (Drosophila) (UniProt Q9N6D8)
T1 sequence: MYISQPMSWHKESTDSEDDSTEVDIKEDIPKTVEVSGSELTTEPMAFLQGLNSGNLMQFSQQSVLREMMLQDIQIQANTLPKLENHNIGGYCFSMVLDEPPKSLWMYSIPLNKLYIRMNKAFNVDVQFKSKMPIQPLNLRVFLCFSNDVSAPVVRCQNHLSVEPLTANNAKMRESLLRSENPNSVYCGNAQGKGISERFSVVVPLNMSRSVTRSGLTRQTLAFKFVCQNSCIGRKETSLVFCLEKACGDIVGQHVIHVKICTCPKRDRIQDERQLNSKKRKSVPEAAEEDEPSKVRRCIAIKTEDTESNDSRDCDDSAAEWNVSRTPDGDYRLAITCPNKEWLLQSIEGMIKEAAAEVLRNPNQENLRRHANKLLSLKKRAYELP
Test: two-hybrid; yeast two-hybrid in EGY40 cells with pEG202 and pJG4-5 vectors; lacZ reporter, blue colonies; empty vectors as controls

Cyclin domains of Cyclin G (Drosophila) (domain or fragment)
binding: binds
